Reference: PMC8391295
Results are given in words; binding and its absence hold for the method and conditions named. In cells and extracts the contact can be indirect. Some entries that bind do so weakly or less than the wild type.

Amino acid sequences for entries named in this document (tags omitted).
UniProt P55064: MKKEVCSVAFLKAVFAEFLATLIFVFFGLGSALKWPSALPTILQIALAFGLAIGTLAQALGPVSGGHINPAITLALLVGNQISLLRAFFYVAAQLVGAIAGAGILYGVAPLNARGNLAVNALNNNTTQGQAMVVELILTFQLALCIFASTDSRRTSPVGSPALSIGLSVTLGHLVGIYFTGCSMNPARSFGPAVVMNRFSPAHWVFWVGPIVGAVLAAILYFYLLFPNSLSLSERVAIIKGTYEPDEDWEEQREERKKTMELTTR

Tests used:
[1] = biological target: T1, human PIP (endogenous, minor salivary glands) (human (endogenous in minor salivary glands)) (UniProt P12273); test: proximity ligation; PLA on paraffin-embedded human minor salivary gland sections (SICCA-NS and SICCA-SS patients); rabbit anti-AQP5 and mouse anti-PIP
T1 sequence: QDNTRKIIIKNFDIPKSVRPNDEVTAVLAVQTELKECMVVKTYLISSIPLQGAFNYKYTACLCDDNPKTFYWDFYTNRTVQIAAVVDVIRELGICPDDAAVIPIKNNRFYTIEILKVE

[2] = biological target: T2, PIP (from the PIP-encoding plasmid, pEZ-M94 vector, GeneCopoeia) (human) (UniProt P12273); test: proximity ligation; Duolink PLA on co-transfected NS-SV-AC cells fixed with methanol 48 h post-transfection; mouse anti-HA-tag and rabbit anti-PIP
T2 sequence: T1 sequence

| Substance | binding [1] | binding [2] |
| --- | --- | --- |
| human AQP5 (endogenous, minor salivary glands) (from UniProt P55064 1-265) | binds |  |
| HA-AQP5 (from UniProt P55064 1-265) |  | binds |
